Values from PubChem BioAssay AID1259405 (NCATS, 2018).
Shown is one part, drawn at random, of about 50,000 deposited reagents. In the full data, about 4,000 (8%) got an active call. 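Mouse siRNA library applied to hamster cells; one well for each siRNA.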 Reagents against one gene are numbered here.

- Screen: 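Knock-downs that lift recombinant protein yield in hamster ovary cells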 (primary screen)
- Cell system: Chinese hamster CHO-K1 ovary cells with stable secreted eGFP expression
- Reagents: single siRNA against mouse genes, 0.8 pmol siRNA per well (2 µl of 400 nM stock)
- Time to read-out: 3 days
- Measurement: 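Per-well intracellular GFP measured by laser scanning cytometry, plus viability from ATP luminescence, each relative to plate median of non-targeting control wells, in %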
- Scale: GFP, % of control: higher = more GFP per well, higher productivity; viability (ATP), % of control: higher = more viable cells (more ATP)
- Active means: 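Called active when intracellular GFP, relative to negative control, is at or above 120%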

no.	gene symbol	siRNA no.	GFP, % of control	viability (ATP), % of control	outcome
1	Zmym6	1	69.6	70.8	inactive
2	Zmym6	2	36.2	53.5	inactive
3	Zmym6	3	73.3	52.4	inactive
4	Tmem161b	1	69	69.9	inactive
5	Tmem161b	2	53.6	41.3	inactive
6	Tmem161b	3	84.2	89	inactive
7	Sox4	1	104	68	inactive
8	Sox4	2	114	69.4	inactive
9	Sox4	3	69.1	88.4	inactive
10	Gjc3	1	118	83.9	inactive
11	Gjc3	2	78.2	60.9	inactive
12	Gjc3	3	63.2	52.6	inactive
13	Or13f5	1	126	95.1	active
14	Or13f5	2	105	75.7	inactive
15	Or13f5	3	58.2	27.6	inactive
16	Zdhhc1	1	65.9	60.3	inactive
17	Zdhhc1	2	59.4	64.4	inactive
18	Zdhhc1	3	85.6	105	inactive
19	Atp9b	1	93.4	118	inactive
20	Atp9b	2	72.6	91.9	inactive
21	Atp9b	3	81.9	80.3	inactive
22	Morf4l1	1	68.5	63.5	inactive
23	Morf4l1	2	82	76.5	inactive
24	Morf4l1	3	36.1	55.9	inactive
25	Lrrtm1	1	60.7	43.1	inactive
26	Lrrtm1	2	76.2	79	inactive
27	Lrrtm1	3	87.7	94.7	inactive
28	Syt6	1	104	88.5	inactive
29	Syt6	2	55.6	59.3	inactive
30	Gm527	1	71.7	89.3	inactive
31	Gm527	2	90.2	89	inactive
32	Gm527	3	85.8	74.1	inactive
33	Rps14	1	103	56.1	inactive
34	Rps14	2	63.8	26.2	inactive
35	Rps14	3	48.9	19.8	inactive

No new results follow: 5 of the entries above.
no.	gene symbol	siRNA no.	GFP, % of control	viability (ATP), % of control	outcome
5	Tmem161b	2	53.6	41.3	inactive
6	Tmem161b	3	84.2	89	inactive
7	Sox4	1	104	68	inactive
8	Sox4	2	114	69.4	inactive
9	Sox4	3	69.1	88.4	inactive
